# The supplement of paper PMC4604168 (melanoma cell lines)
# Some of the results follow. Single values are uncertain, as repeats are few or missing.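 The apoptosis fraction was the count of cleaved-PARP antibody-stained nuclei relative to all DNA-stained nuclei, imaged in 1,536-well plates. Screening doses were set so most cells survived, and baseline and induced cleaved-PARP levels vary greatly across cell lines.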
# System: SkMel5
# Test: cleaved PARP positive nuclei fraction relative to DMSO control; melanoma cells; higher = more apoptosis
# Settings: library dose: low library concentration; 72 h
row,SMILES,cleaved PARP positive nuclei fraction
1,"Nc1ncn([C@H]2C[C@H](O)[C@@H](CO)O2)c(=O)n1 [decitabine] + CCc1ccc(CCOc2ccc(CC3SC(=O)NC3=O)cc2)nc1 [pioglitazone] (first compound 0.1 µM, partner dose 2 µM)",227%
2,"CN1CCN(c2ccc3nc(-c4c(N)c5c(F)cccc5[nH]c4=O)[nH]c3c2)CC1 [Dovitinib] + CN(NC(=O)CC(=O)NN(C)C(=S)c1ccccc1)C(=S)c1ccccc1 [STA4783] (first compound 0.1 µM, partner dose 0.006 µM)",139%
3,"Nc1ccn([C@@H]2O[C@H](CO)[C@@H](O)C2(F)F)c(=O)n1 [gemcitabine] + O=c1cc(-c2cccc3c2Sc2ccccc2S3)oc(N2CCOCC2)c1 [KU55933] (first compound 0.0004 µM, partner dose 1 µM)",202%
4,"CCCS(=O)(=O)Nc1ccc(F)c(C(=O)c2c[nH]c3ncc(Cl)cc23)c1F + COc1cc(Nc2ncc(F)c(Nc3ccc4c(n3)NC(=O)C(C)(C)O4)n2)cc(OC)c1OC [Tamatinib] (first compound 0.08 µM, partner dose 0.4 µM)",68.7%
5,"Cn1c(=O)n(-c2ccc(C(C)(C)C#N)cc2)c2c3cc(-c4cnc5ccccc5c4)ccc3ncc21 + Oc1cc(-c2nc(-c3ccccc3)[nH]c2-c2ccncc2)ccc1Cl [L779450] (first compound 0.004 µM, partner dose 0.2 µM)",197%
6,"CN1CCN(c2ccc3nc(-c4c(N)c5c(F)cccc5[nH]c4=O)[nH]c3c2)CC1 [Dovitinib] + COc1ccc(COc2ccc(Cc3cnc(N)nc3N)cc2OC)cc1 [GW2580] (first compound 0.1 µM, partner dose 1 µM)",176%
7,"C=C(c1ccc(C(=O)O)cc1)c1cc2c(cc1C)C(C)(C)CCC2(C)C [Bexarotene] + CCc1ccc(CCOc2ccc(CC3SC(=O)NC3=O)cc2)nc1 [pioglitazone] (first compound 2 µM, partner dose 2 µM)",168%
8,"Cc1cc(Nc2cc(N3CCN(C)CC3)nc(/C=C/c3ccccc3)n2)n[nH]1 + CC(C)CCN1c2nc(Nc3cc(F)c(O)c(F)c3)ncc2N(C)C(=O)C1C [BID1870] (first compound 0.04 µM, partner dose 0.2 µM)",211%
9,"CN1CCN(c2ccc3nc(-c4c(N)c5c(F)cccc5[nH]c4=O)[nH]c3c2)CC1 [Dovitinib] + CN(C)S(=O)(=O)c1ccc2c(c1)/C(=C/c1cc3c([nH]1)CCCC3)C(=O)N2 [SU6656] (first compound 0.1 µM, partner dose 0.4 µM)",84.5%
10,"CC(C)C[C@H](NC(=O)[C@H](Cc1ccccc1)NC(=O)c1cnccn1)B(O)O [Bortezomib] + COc1cc2ncnc(Nc3ccc(Oc4ccccc4)cc3)c2cc1OC [SrcI1] (first compound 0.001 µM, partner dose 2 µM)",67.7%
11,"CC(C)C[C@H](NC(=O)[C@H](Cc1ccccc1)NC(=O)c1cnccn1)B(O)O [Bortezomib] + C[C@@H]1CCN(C(=O)CC#N)C[C@@H]1N(C)c1ncnc2[nH]ccc12 [CP690550] (first compound 0.001 µM, partner dose 1 µM)",86.5%
12,"CNC(=O)c1cc(Oc2ccc(NC(=O)Nc3ccc(Cl)c(C(F)(F)F)c3)cc2)ccn1 [sorafenib] + c1cc(-c2cnn3cc(-c4ccc(OCCN5CCCCC5)cc4)cnc23)ccn1 [Dorsomorphin] (first compound 0.4 µM, partner dose 0.4 µM)",426%
13,"O=C(O)c1ccc2c(c1)nc(Nc1cccc(Cl)c1)c1ccncc12 + O=C(Nc1cccc(Cl)c1)Nc1ncc(CCNc2ncnc3ccsc23)s1 [SNS314] (first compound 0.4 µM, partner dose 0.0008 µM)",171%
14,"CCCS(=O)(=O)Nc1ccc(F)c(C(=O)c2c[nH]c3ncc(Cl)cc23)c1F + CCc1ccc(CCOc2ccc(CC3SC(=O)NC3=O)cc2)nc1 [pioglitazone] (first compound 0.08 µM, partner dose 2 µM)",63%
15,"O=C(O)c1ccc2c(c1)nc(Nc1cccc(Cl)c1)c1ccncc12 + CC(C)(C)c1cnc(CSc2cnc(NC(=O)C3CCNCC3)s2)o1 [SNS-032] (first compound 0.4 µM, partner dose 0.01 µM)",304%
16,"CN1CCN(c2ccc3nc(-c4c(N)c5c(F)cccc5[nH]c4=O)[nH]c3c2)CC1 [Dovitinib] + NC(=O)Nc1cc(-c2cccc(F)c2)sc1C(=O)N[C@H]1CCCNC1 [AZD7762] (first compound 0.1 µM, partner dose 0.02 µM)",97.9%
17,"O=C(O)[C@@H]1[O][Sb](=[O])([O][Sb]2(=[O])[O][C@H]([C@H](O)CO)[C@H](O)[C@H](C(=O)O)[O]2)[O][C@H]([C@H](O)CO)[C@@H]1O (stereo partly drawn) [stibogluconate] + OCCn1cc(-c2cnc3nnn(Cc4ccc5ncccc5c4)c3n2)cn1 [PF04217903] (first compound 2 µM, partner dose 1 µM)",42%
18,"CS(=O)(=O)CCNCc1ccc(-c2ccc3ncnc(Nc4ccc(OCc5cccc(F)c5)c(Cl)c4)c3c2)o1 [lapatinib] + COc1ccc(COc2ccc(Cc3cnc(N)nc3N)cc2OC)cc1 [GW2580] (first compound 0.8 µM, partner dose 1 µM)",72.3%

# Given tab-delimited: part of the list above.
row	SMILES	cleaved PARP positive nuclei fraction
3	Nc1ccn([C@@H]2O[C@H](CO)[C@@H](O)C2(F)F)c(=O)n1 [gemcitabine] + O=c1cc(-c2cccc3c2Sc2ccccc2S3)oc(N2CCOCC2)c1 [KU55933] (first compound 0.0004 µM, partner dose 1 µM)	202%
4	CCCS(=O)(=O)Nc1ccc(F)c(C(=O)c2c[nH]c3ncc(Cl)cc23)c1F + COc1cc(Nc2ncc(F)c(Nc3ccc4c(n3)NC(=O)C(C)(C)O4)n2)cc(OC)c1OC [Tamatinib] (first compound 0.08 µM, partner dose 0.4 µM)	68.7%
